Measurements: patent US10406197B2, “Substances and methods for the use in prevention and/or treatment in Huntington's disease” (AFFIRIS AG, priority 2014, dated 2019)

System: Huntingtin-derived immunization peptides
Assay: Core epitope mapping by alanine / single amino acid substitution scanning
Format: binding, human
Settings: signal of substituted peptide reduced to less than 70% defines core epitope position

B1: M1D1: monoclonal antibody, mouse IgM, generated using peptide p7564 as immunogen; VH/VL SEQ ID No. 64/65 (antibody)
VH: MDFGLSWVFFVVFYQGVHCEVQLVESGGGLVQPKGSLKLSCAASGFTFNTYAMNWVRQAPGKGLEWVARIRSKSNNYATYYADSVKDRFTISRDDSQSMLYLQMNNLKTEDTAMYYCVRHGEYGNPWFAYWGQGTLVTVSAESQSFPNVFPL
light: MKLPVRLLVLMFWIPASSSDVVMTQTPLSLPVSLGDQASISCRSSQSLVHSNGNTYLHWYLQKPGQSPKLLIYKVSNRFSGVPDRFSGSGSGTDFTLKISRVEAEDLGVYFCSQSTHVPYTFGGGTKLEIKRADAAPTVSIFPPSSEQLTSGGASVVCFLNNFYPK
modifications: antibody sequence
core epitope: SSEIVLD

B2: PRR13: monoclonal antibody, mouse IgG2a, generated by hybridoma technique using peptide p6773 as immunogen; VH/VL SEQ ID No. 62/63 (antibody)
VH: MGWSWVMLFLLSGTGGVLSEVQLQQSAPELVKPGASVKMSCKASGYSFTDFYMKWVKQSHGKGLEWIGDIDPKNGDTFYNQKFKGRATLTVDKSSSTAYMQLNSLTTEDSAVYYCATYYGYTMDYWGQGTSVTVSSAKTTAPSVYPLAPVCGDTTGSSVTLGCLVKGYF
light: MDFQVQIFSFLLISASVIMSRGQIVLTQSPAIMSASLGERVTMTCTASSSVTSSYLHWYQQKPGSSPKLWIYSTSNLASGVPARFSGSGSGTSYSLTISSMEAEDAATYYCHQYRRPPRTFGGGTKLEIKRADAAPTVSIFPPSSEQLTSGGASVVCFLNNFYPR
modifications: antibody sequence
core epitope: ..........LLPQP.....epitope mapped for mAB PRR13

B3: C6-17: monoclonal antibody, mouse IgG2a, generated by hybridoma technique using peptide p7543 as immunogen; VH/VL SEQ ID No. 60/61 (antibody)
VH: MGWSCIMLFLLSGTAGVLSEVQLQQSGPELVKPGASVKISCKTSGYTFTEYTMHWVKQSHGKSLEWIGGINPNNGGTRYNQKFKGKATLTVDRSSSTAYMELRSLTSEDSAVYYCASLDGRDYWGQGTTLTVSSAKTTAPSVFPLA
light: MVLMLLLLWVSGTCGDIVMSQSPSSLAVSAGEKVTMSCKSSQSLLNSRTRKNYLAWYQQKPGQSPKLLIYWASTRESGVPDRFTGSGSGTDFTLTISSVQAEDLAVYSCKQSYNLLTFGAGTKLELKRADAAPTVSIFPPSSEQLTSGGASVVCFLNNFYPK
modifications: antibody sequence
core epitope: QYLGLQIG
